According to article PMC9177545, “3-oxo-C12:2-HSL, quorum sensing molecule from human intestinal microbiota, inhibits pro-inflammatory pathways in immune cells via bitter taste receptors” (Scientific Reports, 2022):

System: RAW264.7 cells
Experiment: Transcriptomic analysis (RNA-seq) of activated RAW264.7 cells
Assay type: cell-based, murine
Details: 50 µM, 2 h, LPS and IFNγ stimulated
Experimental: In RAW264.7 cells, inflammation was triggered with LPS (10 ng/mL, Sigma) and IFNγ (10 U/mL, R&Dsystems) for 2 h or 6 h, depending on the experiments. PBMC were exposed to LPS (10 ng/mL) and AHL for 24 h. For TAS2R38 inhibition experiments, cells were exposed to TAS2R38 allosteric inhibitor probenecid (1 mM, Sigma) for one hour before adding AHLs and the inflammatory cocktail, without changing the media.
Cells were treated for 2 h and then washed once with PBS before RNA extraction using RNeasy minikit (Qiagen), according to the manufacturer’s instructions. Briefly, cells were lysed and 1 volume of ethanol was added. The sample was transferred into a spin column and centrifuged at 8000g for 15 s. The column was washed several times and then eluted with water. RNA quality was assessed using NanoChip (Agilent) on a chip reader (Bioanalyzer 2100, Agilent).
After extraction, total RNA were qualified with the AGILENT tapeStation 2200. […] Final samples pooled into a library were sequenced on ILLUMINA Novaseq 6000, corresponding to 2 × 28 Millions of 100 bases reads per sample after demultiplexing.
FastQC v 0.11.9[62] was used for the quality control of raw paired-end fastq data set. Illumina’s adapters were removed from reads using cutadapt v2.10[63]. […] Salmon v 1.4.0[65] was used to quantify paired-end reads against a mapping-based index built from the Ensembl GRCm38 transcript set for all samples. […]

## 3-oxo-C12:2-HSL
  number of genes down-regulated compared with control cells treated with DMSO: 736 genes
  number of genes up-regulated compared with control cells treated with DMSO: 1140 genes
